Measurements reported in patent US12011619B2, “Low intensity focused ultrasound for treating cancer and metastasis” (priority 2015, dated 2024).
“Also recorded” adds a separate entry of the source. For at least one compound, name, drawing or mass did not settle the structure.

Columns and labels:
[1] = system: RM1 tumor (murine prostate cancer cell line); experiment: RM1 tumor growth in C57Bl/6 mice; assay type: in vivo, mouse; settings: 17AAG 25 mg/kg body weight three times a week
Protocol: This protocol yielded an approximate in situ spatial-peak temporal-average acoustic intensity of 270 W/cm^2, resulting in estimated average intra-tumoral temperature elevation of 3.2° C. Post-treatment, there were no signs of normal tissue toxicity such as alopecia, thermal damage, or skin wounds. […] Control mice were injected with equal volume of the vehicle DMSO, which was used to solubilize 17AAG.
C57Bl/6 and BalbC nu/nu mice were injected subcutaneously with 1×10^5 RM-1 (murine prostate cancer cell line) and 1×10^6 PC3 (human prostate cancer cell line) cells on the flank, respectively. Approximately 10 days later, the tumor became palpable (3-5 mm in diameter), whereupon LOFU treatment was initiated. […] Palpable tumors were treated with LOFU every 3-4 days for five fractions administered over two weeks. Animals received 17AAG three times a week during this time. Tumor volume measurements were performed twice weekly using Vernier calipers along with simultaneous physical assessment of signs of systemic toxicity (malaise and diarrhea).

[2] = system: pPERK; experiment: Immunoblot of phosphorylated PERK in tumor tissue; assay type: in vivo, mouse; settings: absent in untreated and LOFU-treated tumors
[3] = system: phosphorylated eIF2α; experiment: Immunoblot of phosphorylated eIF2α in RM1 tumors; assay type: in vivo, mouse; settings: vs untreated controls
[4] = system: pro-apoptotic target genes (Bax, Vcp, Pdia3, Armet, Mapk8, Mapk9, Mapk10); experiment: Mouse UPR qRT-PCR array of pro-apoptotic genes in tumor tissue; assay type: in vivo; settings: compared to untreated controls
[5] = system: prostate tumors; experiment: TUNEL staining of apoptosis in prostate tumors; assay type: in vivo, mouse; settings: vs untreated controls
[6] = system: LAMP-2A; experiment: Immunoblot of LAMP-2A (chaperone mediated autophagy marker) in RM1 tumor; assay type: in vivo, mouse; settings: RM1 tumor tissue
[7] = system: Beclin; experiment: Immunoblot of Beclin (macroautophagy marker) in RM1 tumor; assay type: in vivo, mouse; settings: RM1 tumor tissue
[8] = system: stem cell transcription factors; experiment: qRT-PCR array of stem cell transcription factors in tumors; assay type: in vivo, mouse; settings: FoxP1, Nrf2f, Pou5f1 and others
[9] = system: XBP1 mRNA; experiment: Splicing of XBP1 mRNA in RM1 tumors; assay type: in vivo, mouse; settings: LOFU-induced splicing in RM1 tumors
[10] = system: IRE1α mRNA; experiment: Real Time-PCR of IRE1α mRNA in RM1 tumors; assay type: in vivo, mouse; settings: effect of 17AAG treatment on LOFU induced increase (2.8±0.4 folds)

C=CCNC1=C2C[C@@H](C)C[C@H](OC)[C@H](O)[C@@H](C)/C=C(\C)[C@H](OC(N)=O)[C@@H](OC)/C=C\C=C(/C)C(=O)NC(=CC1=O)C2=O [17AAG, 17-N-allylamino-17-demethoxygeldanamycinan]
RM1 tumor growth inhibition (qualitative) [1]: failed to inhibit tumor growth; also recorded: failed to control tumors significantly
pPERK levels (immunoblot) [2]: significant increase
phosphorylated eIF2α levels (immunoblot) [3]: induced phosphorylation of eIf2α over the basal levels
induction of pro-apoptotic target genes (PCR array heatmap) [4]: minimal induction
apoptosis in tumor (TUNEL staining) [5]: induced significant apoptosis; also recorded: also induced apoptosis in tumor tissue
LAMP-2A expression level (immunoblot) [6]: induced the expression of LAMP-2A; also recorded: upregulates the LAMP2a expression level
Beclin levels (immunoblot) [7]: remain unchanged
mRNA levels of stem cell transcription factors (qRT-PCR array) [8]: increased the expression of some transcription factor mRNAs
splicing of XBP1 mRNA [9]: inhibits the splicing of XBP1
IRE1α mRNA expression [10]: did not alter
